Results: paper PMC4428482
No constants are given. Whether binding was seen depends on the method and setting. In cells and extracts the contact can be indirect. Some binding calls cover weakened binding; strength is not graded here. Blank lines part the entries; values can stand above or below the molecule they belong to.

Biological target: T1, CeHop (STI-1) (C. elegans (endogenous in wild-type animals)) (UniProt O16259)
T1 sequence: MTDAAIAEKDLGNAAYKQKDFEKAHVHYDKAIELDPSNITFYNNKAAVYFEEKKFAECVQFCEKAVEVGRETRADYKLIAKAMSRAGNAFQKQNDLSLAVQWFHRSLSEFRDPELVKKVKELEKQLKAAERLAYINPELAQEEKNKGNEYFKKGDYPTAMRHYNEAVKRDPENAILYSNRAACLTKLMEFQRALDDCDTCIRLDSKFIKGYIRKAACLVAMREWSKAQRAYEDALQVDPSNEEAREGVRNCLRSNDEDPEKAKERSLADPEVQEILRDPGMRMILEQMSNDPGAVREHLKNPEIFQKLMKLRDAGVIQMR
Assay: co-IP; total lysate of age-synchronized wild-type C. elegans in RIPA buffer with protease inhibitors, 4°C; anti-CeHop or anti-CeAha1 antibodies, Protein A/G PLUS-Agarose beads, three washes in RIPA buffer; western blot with anti-CeHop, anti-CeAha1, anti-CeHsp90 or anti-UNC-45 antibodies

binding: binds
Molecule: CeHsp90 (DAF-21) (from UniProt Q18688 1-702)

binding: no binding
B1: UNC-45 (protein, UniProt G5EG62 1-961)
chain: MVARVQTAEEIRDEGNAAVKDQDYIKADELYTEALQLTTDEDKALRPVLYRNRAMARLKRDDFEGAQSDCTKALEFDGADVKALFRRSLAREQLGNVGPAFQDAKEALRLSPNDKGIVEVLQRLVKANNDKIKQTTSLANKVTDMEKLAFRGEAKDTEQKMTALNNLLVLCRESESGATGVWNQGALVPFVLNLINDASENEEVTVTAIRILDETIKNSVRCMKFLAMHDPDGPKSVRFVCRLMCKKSTKDFVDATGILVQRVFNAMAKMDRQKEMKPDPEVAEANKIWIIRVLLELQEMLQDPKVGAVQRETCIDLFLKNLMHMDGGIPRGWSWKFVEERGLLALLDVASQIPELCEYPVSAETRQHVAICLQRLEEDMVFDTKRTIFKEKVDMFFNALISRCTNDDEGHKYRIKLSCFLITMLQGPVDIGINLITNDQLTPIMLEMAASQDHLMQGIAAELIVATVSKHERAINMLKVGIPVLRALYDSEDPTVKVRALVGLCKIGAAGGDDISKATMKEEAVISLAKTCKKFLLETEKYSVDIRRYACEGLSYLSLDADVKEWIVDDSLLLKALVLLAKKAGALCVYTLATIYANLSNAFEKPKVDEEMVKLAQFAKHHVPETHPKDTEEYVEKRVRALVEEGAVPACVAVSKTESKNALELIARSLLAFAEYEDLRGRIIAEGGTVLCLRLTKEASGEGKIKAGHAIAKLGAKADPMISFPGQRAYEVVKPLCDLLHPDVEGKANYDSLLTLTNLASVSDSIRGRILKEKAIPKIEEFWFMTDHEHLRAAAAELLLNLLFFEKFYEETVAPGTDRLKLWVLYSAEVEEERLSRASAAGFAILTEDENACARIMDEIKSWPEVFKDIAMHEDAETQRRGLMGIANIMHSSNKLCSEIVSSEVFRVLVAVTKLGTINQERAGSTEQAKRGLEAAEKFGLIKATDREIYERENQMSTIQE
